Experiments:
[1] = system: white blood cells; test: Immune cell selective uptake (immune selectivity ratio) in blood cell preparations; format: cell-based, mammalian; conditions: fluorescent image of polymorphonuclear cells (FIG. 3)
Procedure: Freshly drawn heparinised blood or buffy coat preparations are used for the determination of immune cell partition ratios. Buffy coat preparations are preferred. These may be obtained from donor blood by simple centrifugation of whole blood (4795 g for 10 minutes). Following centrifugation, plasma is collected from the surface, after which immune cells are expressed from the donor bags along with the erythrocytes lying immediately below the leukocyte layer. This ensures high yields and a sufficient population of erythrocytes for partition. 5 ml of the resulting cell suspension are dispensed into T25 culture flasks. Substrates are added to a final concentration between 1 and 10 μM and the suspensions incubated at 37° C., in a 5% CO2 atmosphere. For analysis of uptake kinetics, samples are withdrawn at 0, 2, 5, 10, 30, 60, 90, 180, or 240 min after substrate addition. For screening purposes, samples are taken at 0 and 120 minutes. […]
Uptake of fluorescent compounds is monitored using fluorescence microscopy. Excitation and emission wavelengths depend of the fluorescence label in use. […]
Cell lysates are analysed using a HP 1100 HPLC System (Agilent Technologies, Waldbronn, Germany) with a Kromasil 3.5μ C18, 50×2.0 mm column and guard cartridge system (both, Phenomenex, Aschaffenburg, Germany) run at 30° C. […]
Masses are monitored according to the known or expected M/Z ratios. […]

[2] = system: lymphocytes; test: Proliferation assay (lymphocytes, BrdU ELISA); format: cell-based, mammalian; conditions: ratio of IC50 at 2 h to IC50 at 72 h; lower = better uptake and release

Compound | intracellular distribution [1] | Ratio (2 h:72 h) [2]
CC[C@H]1OC(=O)[C@H](C)[C@@H](OC2C[C@@](C)(OC)[C@@H](O)[C@H](C)O2)[C@H](C)[C@@H](OC2O[C@H](C)C[C@H](N(C)C)[C@H]2O)[C@](C)(O)C[C@@H](C)/C(=N/OCc2cc(=O)oc3cc(OC)c(OC)cc23)[C@H](C)[C@@H](O)[C@]1(C)O (some centres unmarked) [Compound 3] | even distribution with some concentration near the nucleus | 
CCOC(=O)CC/C(C)=C/Cc1c(OC)c(C)c2c(c1OC(=O)CCC(=O)O[C@@H]1C(N(C)C)C[C@@H](C)O[C@H]1O[C@@H]1[C@@H](C)[C@H](O[C@H]3C[C@@](C)(OC)[C@@H](O)[C@H](C)O3)[C@@H](C)C(=O)O[C@H](CC)[C@@](C)(O)[C@H](O)[C@@H](C)N(C)C[C@H](C)C[C@@]1(C)O)C(=O)OC2 (some centres unmarked) [Compound 69] |  | 1.9
CC[C@H]1OC(=O)[C@H](C)[C@@H](O)[C@H](C)[C@@H](O[C@@H]2O[C@H](C)C[C@@H](N(C)CCOC(=O)CC/C(C)=C/Cc3c(O)c4c(c(C)c3OC)COC4=O)[C@@H]2N(C)C)[C@](C)(O)C[C@@H](C)CN(C)[C@H](C)[C@@H](O)[C@]1(C)O [Compound 74] |  | 1.45
CC[C@H]1OC(=O)[C@H](C)C(=O)[C@H](C)[C@@H](O[C@@H]2O[C@H](C)C[C@H](N(C)C)[C@H]2OC(=O)CC/C(C)=C/Cc2c(O)c3c(c(C)c2OC)COC3=O)[C@](C)(O)C[C@@H](C)CN(C)[C@H](C)[C@@H](O)[C@]1(C)O [Compound 79] |  | 2.63
CC[C@H]1OC(=O)[C@H](C)[C@@H](O[C@H]2C[C@@](C)(OC)[C@@H](O)[C@H](C)O2)[C@H](C)[C@@H](O[C@@H]2O[C@H](C)C[C@@H](OC(=O)CC/C(C)=C/Cc3c(O)c4c(c(C)c3OC)COC4=O)[C@@H]2N2CCOCC2)[C@](C)(O)C[C@@H](C)CN(C)[C@H](C)[C@@H](O)[C@]1(C)O [Compound 80] |  | 3.53
COc1c(C)c2c(c(O)c1C/C=C(\C)CCC(=O)OC(COCCCCOCC(CN1CCOCC1)OC(=O)CC/C(C)=C/Cc1c(O)c3c(c(C)c1OC)COC3=O)CN1CCOCC1)C(=O)OC2 (centres unmarked) [Compound 81] |  | 1.6
COc1c(C)c2c(c(O)c1C/C=C(\C)CCC(=O)OCCN1CCOCC1)C(=O)OC2 [Mycophenolate mofetil, reference compound] |  | 4.5
COc1c(C)c2c(c(O)c1C/C=C(\C)CCC(=O)O)C(=O)OC2 [Mycophenolic acid] |  | 4.63

From patent US7579324B2, “Conjugates of biologically active compounds, methods for their preparation and use, formulation and pharmaceutical applications thereof” (c-a-i-r biosciences GmbH, priority 2002, dated 2009)
